Results: PubChem BioAssay AID504327 (National Center for Advancing Translational Sciences (NCATS), 2011)
Hit rate of the full screen: of about 390,000 compounds, about 820 (0.21%) were called active. Inconclusive means that the source gave no clear call. Such entries were picked first, then a sample of the others. Calls come from the whole dose curve; as a rule, active = well fitted inhibition curve with a large enough effect; inconclusive = small, poorly fitted or top-dose-only effect, or another doubt; inactive = no such curve, though single readings can be large or run the other way. A potency beside an inconclusive call is a rough fit, not a confirmed value.

Amino acid sequences for entries named in this document (tags omitted).
UniProt Q92830, whole entry, looked up: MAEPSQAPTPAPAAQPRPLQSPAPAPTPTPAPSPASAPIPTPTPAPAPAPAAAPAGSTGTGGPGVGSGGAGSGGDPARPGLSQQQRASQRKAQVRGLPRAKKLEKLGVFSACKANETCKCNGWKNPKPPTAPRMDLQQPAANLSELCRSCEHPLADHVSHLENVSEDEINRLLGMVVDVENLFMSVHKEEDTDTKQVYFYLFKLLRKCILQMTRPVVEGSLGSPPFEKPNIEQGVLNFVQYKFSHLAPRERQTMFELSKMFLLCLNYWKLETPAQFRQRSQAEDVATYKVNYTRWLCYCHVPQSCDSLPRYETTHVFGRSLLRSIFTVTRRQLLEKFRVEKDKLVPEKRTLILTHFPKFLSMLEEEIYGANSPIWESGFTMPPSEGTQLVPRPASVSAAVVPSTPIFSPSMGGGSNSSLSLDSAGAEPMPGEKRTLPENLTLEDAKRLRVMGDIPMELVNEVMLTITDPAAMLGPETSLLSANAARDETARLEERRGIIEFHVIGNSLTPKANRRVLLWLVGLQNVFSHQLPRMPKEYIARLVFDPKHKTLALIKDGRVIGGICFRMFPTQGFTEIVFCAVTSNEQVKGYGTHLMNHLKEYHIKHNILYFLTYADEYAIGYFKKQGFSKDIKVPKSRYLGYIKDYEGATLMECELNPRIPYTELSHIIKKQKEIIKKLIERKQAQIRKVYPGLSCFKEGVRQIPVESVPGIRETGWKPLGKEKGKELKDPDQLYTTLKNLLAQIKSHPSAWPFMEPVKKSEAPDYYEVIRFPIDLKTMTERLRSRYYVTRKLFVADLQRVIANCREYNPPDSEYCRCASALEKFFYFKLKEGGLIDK

Each compound was assayed against Histone acetyltransferase KAT2A (Homo sapiens) (UniProt Q92830) (assay: qHTS Assay for Inhibitors of GCN5L2). Conditions: GCN5L2 HAT assay, ThioGlo1 CoA-SH fluorescence; activity change, negative = inhibition: at 58.9 µM (top of the series) unless noted.
How it was run: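 GCN5L2 (20 nM) in 50mM HEPES pH 7.5, 0.1mM EDTA, 0.01% Tween-20 preincubated 15 min with compounds at room temperature. Reaction started with H3(1-25) 75uM, acetyl-CoA 70uM, ThioGlo1 50uM; CoA-thiol fluorescence (Ex340/Em540) read at 0 and 20 min.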
% is set by controls: 0 for no effect and ±100 for the full control effect; potency is the fitted concentration of half-maximal effect.

Structure (SMILES)	Potency	activity change, negative = inhibition
Cc1ccc2c(c1)N(C(=O)CCC(=O)NCCCN(C)Cc1ccccc1)CCO2	inconclusive: 1.26 µM [inhibitor, full curve]	–
CCN(C(=O)C1CCC(CNS(=O)(=O)c2cccc3nsnc23)CC1)c1ccc(C)c(C)c1 (stereo not drawn)	inactive	–
O=C(c1cc(-c2ccc(Cl)cc2)n(-c2ccc(Cl)cc2)n1)N1CCOCC1	inconclusive: 8.91 µM [inhibitor, single point]	–
CCN(CC)S(=O)(=O)c1cccc2cc(C(=O)O)c(O)cc12	inconclusive: 39.8 µM [inhibitor, single point]	–
O=C(O)/C=C/C(=O)c1ccc2c(c1)NC(=O)CO2	inactive	–
CNC(=O)Cn1c(=O)n(C)c2ccccc21	–	inconclusive: -33.5% [inhibitor]
O=C(CCC(=O)N1CCOc2ccc(Cl)cc21)NCCCN1CCN(c2ccccc2F)CC1	inactive	–
O=C1C2CCCN2C(c2ccc(F)cc2)N1c1nccs1 (stereo not drawn)	inconclusive: 39.8 µM [inhibitor, single point]	–
Cc1cccc(C(C)C)c1NC(=O)Cc1ccc(S(=O)(=O)N2CCOCC2)s1	inconclusive: 25.1 µM [inhibitor, single point]	–
Cc1cc(Nc2ccc(C(=O)O)cc2)n2nc(C)nc2n1	inconclusive: 35.5 µM [inhibitor, single point]	–
CC(=O)NCCNc1nc(-c2ccccc2CN(C)C)nc2ccccc12	inconclusive: 39.8 µM [inhibitor, single point]	–
COc1ccc(Cl)cc1NC(=O)CC1CCCC1	inactive	–
CC(=O)Nc1nnc(CCS(=O)(=O)c2ccc(C)c(C)c2)s1	inconclusive: 8.91 µM [inhibitor, single point]	–
O=C(O)CN1CCN(Cc2ccccc2Cl)C1=O	inconclusive: 39.8 µM [inhibitor, single point]	–
Cc1cccc(-n2c(=S)[nH]c3sc4c(c3c2=O)CCc2ccccc2-4)c1	inconclusive: 7.94 µM [inhibitor, full curve, poor fit]	–
Cc1ccc(C(=O)NCc2ccc3c(c2)OCO3)cc1	inconclusive: 6.31 µM [inhibitor, single point]	–
O=C(NC(=S)Nc1ccccc1N1CCOCC1)c1ccc(Br)cc1	inconclusive: 2.82 µM [inhibitor, single point]	–
CCN(CC)CCSC(=O)C(c1ccccc1)c1ccccc1	inconclusive: 3.55 µM [inhibitor, single point]	–
CC1CCN(c2ccc3nnc(CCC(=O)N4CCN(c5ccccc5F)CC4)n3n2)CC1	inconclusive: 0.631 µM [inhibitor, full curve, poor fit]	–
OC(CN1CCN(c2ccccn2)CC1)Cn1c2ccc(Cl)cc2c2cc(Cl)ccc21 (stereo not drawn)	inactive	–
O=C(c1ccccc1)N1CCN(C2C3CC4CC(C3)CC2C4)CC1 (stereo not drawn)	inactive	–
O=C(/C=C/c1ccccn1)c1cc(Br)ccc1O	inactive	–
COc1ccc(Cc2n[nH]c(=S)n2N)cc1OC	inactive	–

Structure (SMILES)	Potency	activity change, negative = inhibition
CCc1nn2c(=O)cc(COc3ccc(/C=C4\C(=N)N5N=C(CC(C)C)SC5=NC4=O)cc3)nc2s1	inactive	–
O=C(Nc1ccc2oc(=O)ccc2c1)c1ccc(-c2cccc([N+](=O)[O-])c2)o1	inconclusive: 28.2 µM [inhibitor, single point]	–
Cc1ccc(Cl)cc1N(CC(=O)NC1CCCCC1)S(C)(=O)=O	inconclusive: 0.708 µM [inhibitor, single point]	–
COc1cccc(CN2CCC(C(=O)Nc3ccc(Oc4cccnc4)cc3)CC2)c1	inconclusive: 0.891 µM [inhibitor, full curve, poor fit]	–
CCOC(=O)c1ccc(NC(=O)CCc2c(C)nc3c(c(C)nn3-c3ccccc3)c2C)cc1	inactive	–
CN(CC(=O)Nc1cccc(F)c1)C(=O)CN1c2cccc3cccc(c23)S1(=O)=O	inconclusive: 31.6 µM [inhibitor, single point]	–
Cc1ccc(OCC(=O)Nc2nnc(S(=O)(=O)N3CCCCC3)s2)cc1	inconclusive: 0.708 µM [inhibitor, full curve, poor fit]	–
CCOc1ccc(N=C(C)C2=C(O)c3ccccc3C2=O)cc1	inconclusive: 44.7 µM [inhibitor, single point]	–
COc1ccccc1N(CC(=O)NCCSCc1ccc(C)cc1)S(=O)(=O)c1ccccc1	inconclusive: 39.8 µM [inhibitor, single point]	–
COc1ccc(C(CC(=O)N2CCOCC2)c2c(OC)cc(OC)c3c(-c4ccccc4)cc(=O)oc23)cc1 (stereo not drawn)	inconclusive: 3.16 µM [inhibitor, single point]	–
O=C(CSC1=NS(=O)(=O)c2ccccc2N1)NCCc1ccccc1	inconclusive: 0.891 µM [inhibitor, single point]	–
Cc1ccc2nc(-c3ccc(O)cc3)oc2c1	inactive	–
CC(=O)Nc1ccc(NC(=O)c2ccc(NS(=O)(=O)c3cc(C(C)(C)C)cc(C)c3C)cc2)cc1	inactive	–
CCOCC(=O)Nc1ccc(-c2cn3cccnc3n2)cc1	active: 35.5 µM	–
CCN(CC)C(=O)C1CCCN(C(=O)c2cc(COc3ccc4ncccc4c3)on2)C1 (stereo not drawn)	inconclusive: 0.141 µM [inhibitor, full curve, poor fit]	–
Cn1c(Sc2ccc(C(F)(F)F)cc2[N+](=O)[O-])nnc1-c1ccccc1	inconclusive: 7.08 µM [inhibitor, single point]	–
COc1ccc(S(=O)(=O)N2CCOCC2)cc1NC(=O)/C=C/c1ccccc1	inconclusive: 22.4 µM [inhibitor, single point]	–
CC1CCC(NC(=O)c2nn(C)c3c2CSc2ccccc2-3)CC1 (stereo not drawn)	inconclusive: 0.316 µM [inhibitor, full curve]	–
CC(C)C(C)/C=C/C(C)C1CCC2C3=CCC4CC(=O)CC[C@@]4(C)C3CC[C@]21C (stereo partly drawn)	inactive	–
CC1CN(C(=O)c2ccc(S(=O)(=O)Nc3ccccc3Cl)cc2)CC(C)O1 (stereo not drawn)	inconclusive: 0.794 µM [inhibitor, single point]	–
COc1ccc(C(=O)Nc2nc3ccccc3s2)cc1	inconclusive: 39.8 µM [inhibitor, single point]	–
COc1ccc(-c2cc(C(F)F)nc(-n3nc(C)cc3C)n2)cc1	inconclusive: 28.2 µM [inhibitor, single point]	–
O=C(Cc1cccs1)N/N=C/C=C/c1ccco1	inconclusive: 25.1 µM [inhibitor, single point]	–

3 entries from above, bar-delimited.
Structure (SMILES) | Potency | activity change, negative = inhibition
OC(CN1CCN(c2ccccn2)CC1)Cn1c2ccc(Cl)cc2c2cc(Cl)ccc21 (stereo not drawn) | inactive | –
O=C(c1ccccc1)N1CCN(C2C3CC4CC(C3)CC2C4)CC1 (stereo not drawn) | inactive | –
O=C(/C=C/c1ccccn1)c1cc(Br)ccc1O | inactive | –

Additional entries.

Structure (SMILES)	Potency	activity change, negative = inhibition
Cc1cccc2cc(C3CC(c4ccco4)=NN3S(C)(=O)=O)c(Cl)nc12 (stereo not drawn)	inconclusive: 2 µM [inhibitor, partial curve]	–
OCCC1CN(Cc2ccc(-c3ccco3)cc2)CCN1Cc1ccsc1 (stereo not drawn)	inconclusive: 17.8 µM [inhibitor, partial curve]	–
CCN(CC)c1ccc(C(=O)Nn2c(C)nc3ccccc3c2=O)cc1	inconclusive: 0.631 µM [inhibitor, single point]	–
COc1ccc(CCC(=O)N2CCN(c3ccc(OC)cc3)CC2)cc1	inconclusive: 5.62 µM [inhibitor, single point]	–
COc1ccccc1CNC(=O)C1CC(c2c(Cl)cccc2Cl)=NO1 (stereo not drawn)	inconclusive: 1 µM [inhibitor, full curve, poor fit]	–
O=Cc1ccccc1OCCCOc1cccc2cccnc12	inactive	–
COc1ccc(-c2cc(C(=O)Nc3cccc(Cl)c3)no2)cc1	inactive	–
CCOc1ccccc1Nc1cc2n(c(=O)n1)CCc1cc(OC)c(OC)cc1-2	inactive	–
CCOc1ccc(C2c3c(oc4ccccc4c3=O)C(=O)N2CCCN2CCOCC2)cc1OCC (stereo not drawn)	inactive	–
O=C(CSc1ccccc1)Nc1nnc(COc2ccc(Cl)cc2)s1	inconclusive: 22.4 µM [inhibitor, partial curve]	–
CCOC(=O)CCc1c(C)c2ccc(OC3CCCCC3=O)c(C)c2oc1=O (stereo not drawn)	inconclusive: 1 µM [inhibitor, single point]	–
O=c1[nH]cnc(O)c1C(c1ccc(Br)cc1)c1c(O)nc[nH]c1=O	inconclusive: 0.141 µM [inhibitor, full curve, poor fit]	–
C=C(C)COc1ccc(-c2n[nH]c(C)c2-c2ccc(Br)cc2)c(O)c1	inconclusive: 11.2 µM [inhibitor, partial curve, poor fit]	–
CCOC(=O)c1c(CN(CC)CC)n(-c2ccccc2)c2ccc(O)cc12	inconclusive: 28.2 µM [inhibitor, partial curve, poor fit]	–
Cc1ccc2c(c1)N(CC(=O)NC1CCCC(C)C1C)C(=O)c1cccnc1O2 (stereo not drawn)	inconclusive: 39.8 µM [inhibitor, single point]	–
CC(=O)Oc1cccc(NC(=O)c2cccc(C(=O)Nc3cccc(OC(C)=O)c3)c2)c1	inconclusive: 3.98 µM [inhibitor, single point]	–
O=C(Nc1nc2c(cc3c4c(cccc42)CC3)s1)c1ccccc1Cl	inconclusive: 39.8 µM [inhibitor, single point]	–
N#CCC(=O)N/N=C\c1ccc(OC/C=C/c2ccccc2)cc1	inconclusive: 50.1 µM [inhibitor, partial curve, poor fit]	–
c1ccc(CCCNc2ncnc3nc[nH]c23)cc1	inactive	–
Cc1nc(NC(=O)CSc2nnc(C3CC3)n2C)sc1C(=O)N(C)C	inconclusive: 1 µM [inhibitor, full curve, poor fit]	–
COC(=O)c1sc(-c2ccc(C(C)(C)C)cc2)cc1NC(=O)CSCC(=O)O	inconclusive: 31.6 µM [inhibitor, single point]	–
Cc1ccc(C23OCCN2CCn2nc4ccccc4c23)cc1 (stereo not drawn)	inconclusive: 14.1 µM [inhibitor, partial curve]	–

Look-ups from above:
Potency with CCOC(=O)c1c(CN(CC)CC)n(-c2ccccc2)c2ccc(O)cc12 reads inconclusive: 28.2 µM [inhibitor, partial curve, poor fit]
Potency with O=c1[nH]cnc(O)c1C(c1ccc(Br)cc1)c1c(O)nc[nH]c1=O reads inconclusive: 0.141 µM [inhibitor, full curve, poor fit]
